What follows are molecules tested on ct-DNA (assay: Thermal calf thymus DNA denaturation). Conditions: 100 μM, 37C, 24 hr; control 82.8 C.
`O=S(=O)(O)c1cc2c(O)c(c1)Cc1cc(S(=O)(=O)O)cc(c1O)Cc1cc(S(=O)(=O)O)cc(c1O)Cc1cc(S(=O)(=O)O)cc(c1O)Cc1cc(S(=O)(=O)O)cc(c1O)Cc1cc(S(=O)(=O)O)cc(c1O)Cc1cc(S(=O)(=O)O)cc(c1O)Cc1cc(S(=O)(=O)O)cc(c1O)C2` [GI-2041] was tested, and the “Tm value of ct-DNA” value was 83 C.
For `COc1c2cc(S(=O)(=O)[O-])cc1Cc1cc(S(=O)(=O)[O-])cc(c1OC)Cc1cc(S(=O)(=O)[O-])cc(c1OC)Cc1cc(S(=O)(=O)[O-])cc(c1OC)Cc1cc(S(=O)(=O)[O-])cc(c1OC)Cc1cc(S(=O)(=O)[O-])cc(c1OC)Cc1cc(S(=O)(=O)[O-])cc(c1OC)Cc1cc(S(=O)(=O)[O-])cc(c1OC)C2.[Na+].[Na+].[Na+].[Na+].[Na+].[Na+].[Na+].[Na+]` [GI-2021], the “Tm value of ct-DNA” value was 81.5 C.
For `O=S(=O)(O)c1cc2c(O)c(c1)Cc1cc(S(=O)(=O)O)cc(c1O)Cc1cc(S(=O)(=O)O)cc(c1O)Cc1cc(S(=O)(=O)O)cc(c1O)Cc1cc(S(=O)(=O)O)cc(c1O)Cc1cc(S(=O)(=O)O)cc(c1O)C2` [GI-2029], the “Tm value of ct-DNA” value was 82.3 C.

From PMC2365111, “Cytotoxicity of Poly(Phenolic)Sulfonates and Their Sodium Salts in L1210 Lymphoid Leukemia Cells” (Metal-Based Drugs, 1998)
